# Measurements: paper PMC12635182
# No constants are given. Whether binding was seen depends on the method and setting. In cells and extracts the contact can be indirect. Where a sequence is shown, tags or fusion partners need not be part of it.
# B1: Sph1-VC (synphilin-1 fused in front of the C-terminal fragment of Venus) (protein, UniProt Q9Y6H5 1-919)
# chain: MEAPEYLDLDEIDFSDDISYSVTSLKTIPELCRRCDTQNEDRSVSSSSWNCGISTLITNTQKPTGIADVYSKFRPVKRVSPLKHQPETLENNESDDQKNQKVVEYQKGGESDLGPQPQELGPGDGVGGPPGKSSEPSTSLGELEHYDLDMDEILDVPYIKSSQQLASFTKVTSEKRILGLCTTINGLSGKACSTGSSESSSSNMAPFCVLSPVKSPHLRKASAVIHDQHKLSTEETEISPPLVKCGSAYEPENQSKDFLNKTFSDPHGRKVEKTTPDCQLRAFHLQSSAAESKPEEQVSGLNRTSSQGPEERSEYLKKVKSILNIVKEGQISLLPHLAADNLDKIHDENGNNLLHIAASQGHAECLQHLTSLMGEDCLNERNTEKLTPAGLAIKNGQLECVRWMVSETEAIAELSCSKDFPSLIHYAGCYGQEKILLWLLQFMQEQGISLDEVDQDGNSAVHVASQHGYLGCIQTLVEYGANVTMQNHAGEKPSQSAERQGHTLCSRYLVVVETCMSLASQVVKLTKQLKEQTVERVTLQNQLQQFLEAQKSEGKSLPSSPSSPSSPASRKSQWKSPDADDDSVAKSKPGVQEGIQVLGSLSASSRARPKAKDEDSDKILRQLLGKEISENVCTQEKLSLEFQDAQASSRNSKKIPLEKRELKLARLRQLMQRSLSESDTDSNNSEDPKTTPVRKADRPRPQPIVESVESMDSAESLHLMIKKHTLASGGRRFPFSIKASKSLDGHSPSPTSESSEPDLESQYPGSGSIPPNQPSGDPQQPSPDSTAAQKVATSPKSALKSPSSKRRTSQNLKLRVTFEEPVVQMEQPSLELNGEKDKDKGRTLQRTSTSNESGDQLKRPFGAFRSIMETLSGNQNNNNNYQAANQLKTSTLPLTSLGRKTDAKGNPASSASKGKNKAA
# Biological target: VN alone (N-terminal fragment of Venus)
# Assay: split reporter; Venus BiFC in HEK 293 cells co-transfected with equimolar amounts of the VN and VC plasmids; fluorescence seen 24 or 48 h after transfection
binder,measurement,value
B1,binding,no binding
